Laboratory results from article PMC8096222.

Sequences of proteins named here, by UniProt entry; tags and fusion partners are left off. A change or cut given only in a name is not applied to a line headed by its entry. A line that says so, or that is headed by a name, gives the form on record, which may keep a tag or linker.
UniProt Q93009: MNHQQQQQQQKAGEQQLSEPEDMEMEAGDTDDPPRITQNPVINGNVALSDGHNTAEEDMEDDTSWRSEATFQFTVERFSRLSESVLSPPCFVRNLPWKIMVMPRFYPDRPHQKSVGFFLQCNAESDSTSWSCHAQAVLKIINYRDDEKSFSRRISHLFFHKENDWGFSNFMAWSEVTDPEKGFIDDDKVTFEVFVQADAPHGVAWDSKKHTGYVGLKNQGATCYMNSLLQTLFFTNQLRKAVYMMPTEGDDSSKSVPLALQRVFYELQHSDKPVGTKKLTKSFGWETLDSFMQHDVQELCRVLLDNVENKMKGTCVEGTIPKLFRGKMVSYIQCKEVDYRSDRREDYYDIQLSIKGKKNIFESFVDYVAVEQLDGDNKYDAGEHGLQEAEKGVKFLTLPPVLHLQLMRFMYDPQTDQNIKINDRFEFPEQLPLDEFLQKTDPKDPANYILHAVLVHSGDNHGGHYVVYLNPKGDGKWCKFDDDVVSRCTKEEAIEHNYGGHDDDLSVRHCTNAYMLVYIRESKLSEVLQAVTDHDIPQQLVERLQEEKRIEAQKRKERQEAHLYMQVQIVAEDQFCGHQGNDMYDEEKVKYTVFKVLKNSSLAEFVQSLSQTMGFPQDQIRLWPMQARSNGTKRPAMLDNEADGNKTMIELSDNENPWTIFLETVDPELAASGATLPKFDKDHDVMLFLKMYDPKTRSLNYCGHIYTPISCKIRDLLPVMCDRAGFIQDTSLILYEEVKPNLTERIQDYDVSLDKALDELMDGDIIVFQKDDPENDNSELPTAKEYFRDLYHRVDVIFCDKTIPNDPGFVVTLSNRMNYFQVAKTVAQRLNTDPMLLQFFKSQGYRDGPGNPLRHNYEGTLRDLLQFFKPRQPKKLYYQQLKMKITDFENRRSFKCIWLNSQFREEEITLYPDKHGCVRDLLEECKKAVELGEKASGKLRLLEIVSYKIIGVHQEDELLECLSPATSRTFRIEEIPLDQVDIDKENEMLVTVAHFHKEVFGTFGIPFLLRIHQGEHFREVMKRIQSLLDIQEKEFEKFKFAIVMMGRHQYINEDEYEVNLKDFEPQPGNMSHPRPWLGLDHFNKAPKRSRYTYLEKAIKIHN
FLAG-EZH2 (Q15910, form named): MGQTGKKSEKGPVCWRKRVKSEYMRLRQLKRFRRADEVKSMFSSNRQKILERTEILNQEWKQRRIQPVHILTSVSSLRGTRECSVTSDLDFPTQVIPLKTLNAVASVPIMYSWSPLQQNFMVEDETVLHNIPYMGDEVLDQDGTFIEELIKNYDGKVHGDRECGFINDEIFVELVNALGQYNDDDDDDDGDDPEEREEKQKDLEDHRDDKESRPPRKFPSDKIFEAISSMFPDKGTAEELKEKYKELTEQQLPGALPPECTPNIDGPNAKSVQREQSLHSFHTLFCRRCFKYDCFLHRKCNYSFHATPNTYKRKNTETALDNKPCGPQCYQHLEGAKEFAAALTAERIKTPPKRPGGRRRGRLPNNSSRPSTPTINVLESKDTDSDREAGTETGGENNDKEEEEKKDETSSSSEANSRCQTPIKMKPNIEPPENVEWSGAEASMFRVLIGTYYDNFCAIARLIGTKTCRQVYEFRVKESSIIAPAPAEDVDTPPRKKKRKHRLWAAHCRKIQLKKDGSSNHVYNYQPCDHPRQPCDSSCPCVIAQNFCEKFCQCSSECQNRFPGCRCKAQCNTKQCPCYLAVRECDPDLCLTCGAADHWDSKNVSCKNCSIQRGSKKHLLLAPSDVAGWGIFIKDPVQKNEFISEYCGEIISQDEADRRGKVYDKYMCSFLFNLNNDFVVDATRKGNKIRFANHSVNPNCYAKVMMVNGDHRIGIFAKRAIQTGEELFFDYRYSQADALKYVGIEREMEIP
UniProt Q06587: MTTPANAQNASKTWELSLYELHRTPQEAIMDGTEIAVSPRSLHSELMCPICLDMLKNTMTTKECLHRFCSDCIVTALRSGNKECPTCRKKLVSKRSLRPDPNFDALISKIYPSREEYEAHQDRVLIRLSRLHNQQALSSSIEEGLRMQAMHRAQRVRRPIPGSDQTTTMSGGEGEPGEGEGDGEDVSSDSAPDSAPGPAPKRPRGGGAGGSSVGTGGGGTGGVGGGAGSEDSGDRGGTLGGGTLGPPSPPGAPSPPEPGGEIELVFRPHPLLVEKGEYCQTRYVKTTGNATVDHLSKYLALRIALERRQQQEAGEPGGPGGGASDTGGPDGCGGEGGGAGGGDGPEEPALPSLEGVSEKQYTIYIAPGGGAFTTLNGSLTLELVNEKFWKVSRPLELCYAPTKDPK
UniProt Q01082: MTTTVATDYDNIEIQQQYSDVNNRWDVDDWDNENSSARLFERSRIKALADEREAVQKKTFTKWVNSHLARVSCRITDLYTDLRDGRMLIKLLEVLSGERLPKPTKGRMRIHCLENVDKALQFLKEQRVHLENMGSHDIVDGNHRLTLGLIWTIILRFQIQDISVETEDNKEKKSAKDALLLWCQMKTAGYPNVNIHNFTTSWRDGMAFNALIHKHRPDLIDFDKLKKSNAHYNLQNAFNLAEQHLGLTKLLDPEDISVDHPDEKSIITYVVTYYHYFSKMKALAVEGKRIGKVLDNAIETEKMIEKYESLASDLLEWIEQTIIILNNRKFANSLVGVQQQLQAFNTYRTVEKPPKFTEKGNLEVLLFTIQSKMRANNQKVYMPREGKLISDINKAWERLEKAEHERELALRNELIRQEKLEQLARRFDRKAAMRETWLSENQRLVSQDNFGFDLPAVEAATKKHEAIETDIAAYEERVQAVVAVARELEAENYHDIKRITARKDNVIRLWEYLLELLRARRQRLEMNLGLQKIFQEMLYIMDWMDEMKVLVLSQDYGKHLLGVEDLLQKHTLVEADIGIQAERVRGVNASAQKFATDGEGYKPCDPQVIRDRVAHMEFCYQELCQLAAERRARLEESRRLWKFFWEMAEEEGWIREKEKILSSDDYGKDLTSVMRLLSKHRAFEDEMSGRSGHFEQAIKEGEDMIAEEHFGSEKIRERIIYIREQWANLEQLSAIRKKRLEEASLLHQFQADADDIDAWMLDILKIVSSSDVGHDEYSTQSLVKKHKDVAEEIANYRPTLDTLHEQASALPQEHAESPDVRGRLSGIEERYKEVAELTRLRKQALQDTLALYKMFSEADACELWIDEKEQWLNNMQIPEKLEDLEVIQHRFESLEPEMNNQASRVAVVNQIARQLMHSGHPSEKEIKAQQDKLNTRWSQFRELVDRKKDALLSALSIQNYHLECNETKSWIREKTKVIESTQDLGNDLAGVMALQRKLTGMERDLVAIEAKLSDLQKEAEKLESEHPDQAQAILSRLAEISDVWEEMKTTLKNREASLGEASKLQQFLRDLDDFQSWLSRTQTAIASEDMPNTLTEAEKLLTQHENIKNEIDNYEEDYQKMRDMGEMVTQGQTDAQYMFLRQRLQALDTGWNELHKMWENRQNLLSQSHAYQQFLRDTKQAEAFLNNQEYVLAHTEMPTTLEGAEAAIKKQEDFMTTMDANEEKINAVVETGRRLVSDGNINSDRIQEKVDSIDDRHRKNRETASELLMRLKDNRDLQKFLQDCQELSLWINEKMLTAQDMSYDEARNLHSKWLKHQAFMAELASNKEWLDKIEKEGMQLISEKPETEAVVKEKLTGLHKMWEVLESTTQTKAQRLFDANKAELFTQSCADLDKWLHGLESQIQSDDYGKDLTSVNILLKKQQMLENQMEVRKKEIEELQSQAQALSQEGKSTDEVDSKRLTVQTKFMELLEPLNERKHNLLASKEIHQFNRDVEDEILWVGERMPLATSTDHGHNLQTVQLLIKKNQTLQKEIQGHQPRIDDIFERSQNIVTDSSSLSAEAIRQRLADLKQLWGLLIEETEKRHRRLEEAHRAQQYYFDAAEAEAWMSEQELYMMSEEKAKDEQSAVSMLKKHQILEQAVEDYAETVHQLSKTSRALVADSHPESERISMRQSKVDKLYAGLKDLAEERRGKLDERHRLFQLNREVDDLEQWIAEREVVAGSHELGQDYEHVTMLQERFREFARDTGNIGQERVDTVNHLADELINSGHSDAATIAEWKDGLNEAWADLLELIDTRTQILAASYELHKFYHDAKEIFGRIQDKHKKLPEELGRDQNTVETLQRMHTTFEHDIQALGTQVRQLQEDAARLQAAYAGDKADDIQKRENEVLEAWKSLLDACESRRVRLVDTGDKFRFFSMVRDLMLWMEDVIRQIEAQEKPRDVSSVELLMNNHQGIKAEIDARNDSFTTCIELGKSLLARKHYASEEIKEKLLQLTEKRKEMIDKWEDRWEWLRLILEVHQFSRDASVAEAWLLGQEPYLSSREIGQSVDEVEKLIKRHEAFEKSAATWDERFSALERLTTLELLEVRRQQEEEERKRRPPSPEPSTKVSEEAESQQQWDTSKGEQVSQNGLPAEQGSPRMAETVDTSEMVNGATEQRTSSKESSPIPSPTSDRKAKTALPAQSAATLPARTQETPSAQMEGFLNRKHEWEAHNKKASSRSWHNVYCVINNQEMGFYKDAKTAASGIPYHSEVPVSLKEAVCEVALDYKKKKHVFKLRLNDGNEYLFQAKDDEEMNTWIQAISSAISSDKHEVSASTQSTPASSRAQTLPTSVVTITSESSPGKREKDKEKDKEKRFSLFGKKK

Columns and labels:
FLAG-USP7 = FLAG-USP7 (UniProt Q93009); assay: affinity purification with mass spectrometry; whole-cell extracts of A375 cells with or without Dox-inducible expression of FLAG-USP7; anti-FLAG purification, silver staining, mass spectrometry
FLAG-EZH2 = FLAG-EZH2 (UniProt Q15910); assay: affinity purification with mass spectrometry; whole-cell extracts of A375 cells stably expressing FLAG-EZH2 on anti-FLAG M2 affinity gel; washed with cold PBS plus 0.2% Nonidet P-40; eluted with FLAG peptide; silver-stained bands analysed by LC-MS/MS

Question: RING1A (from UniProt Q06587 1-406) was tested. Which binding (FLAG-USP7) did it give?
Answer: binds

Question: How did the binding (FLAG-EZH2) turn out when SPTBN1 (from UniProt Q01082 1-2364) was run?
Answer: binds

Question: “ubiquitin-specific protease 7 (USP7) (from UniProt Q93009 1-1102) (enzyme)” was tested. Which binding (FLAG-EZH2) did it give?
Answer: binds

B1: OGT (protein, UniProt O15294 1-1046)
chain: MASSVGNVADSTEPTKRMLSFQGLAELAHREYQAGDFEAAERHCMQLWRQEPDNTGVLLLLSSIHFQCRRLDRSAHFSTLAIKQNPLLAEAYSNLGNVYKERGQLQEAIEHYRHALRLKPDFIDGYINLAAALVAAGDMEGAVQAYVSALQYNPDLYCVRSDLGNLLKALGRLEEAKACYLKAIETQPNFAVAWSNLGCVFNAQGEIWLAIHHFEKAVTLDPNFLDAYINLGNVLKEARIFDRAVAAYLRALSLSPNHAVVHGNLACVYYEQGLIDLAIDTYRRAIELQPHFPDAYCNLANALKEKGSVAEAEDCYNTALRLCPTHADSLNNLANIKREQGNIEEAVRLYRKALEVFPEFAAAHSNLASVLQQQGKLQEALMHYKEAIRISPTFADAYSNMGNTLKEMQDVQGALQCYTRAIQINPAFADAHSNLASIHKDSGNIPEAIASYRTALKLKPDFPDAYCNLAHCLQIVCDWTDYDERMKKLVSIVADQLEKNRLPSVHPHHSMLYPLSHGFRKAIAERHGNLCLDKINVLHKPPYEHPKDLKLSDGRLRVGYVSSDFGNHPTSHLMQSIPGMHNPDKFEVFCYALSPDDGTNFRVKVMAEANHFIDLSQIPCNGKAADRIHQDGIHILVNMNGYTKGARNELFALRPAPIQAMWLGYPGTSGALFMDYIITDQETSPAEVAEQYSEKLAYMPHTFFIGDHANMFPHLKKKAVIDFKSNGHIYDNRIVLNGIDLKAFLDSLPDVKIVKMKCPDGGDNADSSNTALNMPVIPMNTIAEAVIEMINRGQIQITINGFSISNGLATTQINNKAATGEEVPRTIIVTTRSQYGLPEDAIVYCNFNQLYKIDPSTLQMWANILKRVPNSVLWLLRFPAVGEPNIQQYAQNMGLPQNRIIFSPVAPKEEHVRRGQLADVCLDTPLCNGHTTGMDVLWAGTPMVTMPGETLASRVAASQLTCLGCLELIAKNRQEYEDIAVKLGTDLEYLKKVRGKVWKQRISSPLFNTKQYTMELERLYLQMWEHYAAGNKPDHMIKPVEVTESA
Question: With B1 as the molecule, how does the binding (FLAG-EZH2) read?
Answer: binds

These are yes or no findings as the source states them, for the method shown. In cells and extracts the contact can be indirect. A yes stands for co-enrichment or nearness to the bait. Other partners may have been found.
